Results deposited as PubChem BioAssay AID743121 (NCATS, 2013)
In all, the deposit lists about 26,000 reagents; below is an unselected part. Of all reagents, 167 (0.63%) got an active call. 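Calls are per gene from RSA p-values that are not deposited; an individual active-marked siRNA can sensitise only weakly.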 Reagents against one gene are numbered here. Not all columns of the deposit are shown.

Purpose: 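Knock-downs that sensitise breast cancer cells to camptothecin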 (primary screen)
System: MDA-MB-231 cells, a human breast cancer line
Reagents: single siRNA against human genes, 20 nM siRNA (0.8 pmol per well)
Duration: 120 h (drug added 48 h after transfection, read 72 h later)
Challenge: camptothecin 20 nM (about EC30) for 72 h; vehicle 0.1% DMSO in parallel plates
Measured: 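Cell viability by ATP luminescence (CellTiter-Glo) as % of non-targeting siRNA wells, and the log2 ratio of viability without drug over viability with camptothecin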
Scale: log2 vehicle/camptothecin viability: higher = stronger sensitisation to camptothecin; viability with camptothecin: higher = more viable cells
Hit rule: 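Each gene scored by redundant siRNA activity (RSA) over its individual siRNA ratios; a gene is called active at p < 0.001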

Which result is listed for GNG13 (G protein subunit gamma 13) #1?
log2 vehicle/camptothecin viability: -0.219; viability with camptothecin (% of control): 108; Outcome: inactive

What did the screen give for GNG13 (G protein subunit gamma 13) #2?
log2 vehicle/camptothecin viability: 0.296; viability with camptothecin (% of control): 52.1; Outcome: inactive

With GNG13 (G protein subunit gamma 13) #3, what was measured?
log2 vehicle/camptothecin viability: -0.0323; viability with camptothecin (% of control): 97.5; Outcome: inactive

Which result is listed for GNG13 (G protein subunit gamma 13) #4?
log2 vehicle/camptothecin viability: -0.00794; viability with camptothecin (% of control): 107; Outcome: inactive

What did the screen give for CXADR (CXADR cell adhesion molecule) #1?
log2 vehicle/camptothecin viability: -0.0933; viability with camptothecin (% of control): 62.6; Outcome: inactive

For CXADR (CXADR cell adhesion molecule) #2, what does the deposit list?
log2 vehicle/camptothecin viability: 0.1; viability with camptothecin (% of control): 93.6; Outcome: inactive

With CXADR (CXADR cell adhesion molecule) #3, how do the results read?
log2 vehicle/camptothecin viability: 0.17; viability with camptothecin (% of control): 91.6; Outcome: inactive

What is on record for CXADR (CXADR cell adhesion molecule) #4?
log2 vehicle/camptothecin viability: 0.0265; viability with camptothecin (% of control): 68.1; Outcome: inactive

What did the screen give for RAB7B (RAB7B, member RAS oncogene family) #1?
log2 vehicle/camptothecin viability: -0.718; viability with camptothecin (% of control): 56; Outcome: inactive

Which result is listed for RAB7B (RAB7B, member RAS oncogene family) #2?
log2 vehicle/camptothecin viability: -0.446; viability with camptothecin (% of control): 120; Outcome: inactive

For RAB7B (RAB7B, member RAS oncogene family) #3, what was measured?
log2 vehicle/camptothecin viability: -0.361; viability with camptothecin (% of control): 96.1; Outcome: inactive

With RAB7B (RAB7B, member RAS oncogene family) #4, how do the results read?
log2 vehicle/camptothecin viability: -0.1; viability with camptothecin (% of control): 50.9; Outcome: inactive

Which result is listed for TAC3 (tachykinin precursor 3) #1?
log2 vehicle/camptothecin viability: -0.0371; viability with camptothecin (% of control): 66.8; Outcome: inactive

With TAC3 (tachykinin precursor 3) #2, how do the results read?
log2 vehicle/camptothecin viability: 0.526; viability with camptothecin (% of control): 65.5; Outcome: inactive

With TAC3 (tachykinin precursor 3) #3, what was measured?
log2 vehicle/camptothecin viability: -0.257; viability with camptothecin (% of control): 101; Outcome: inactive

For TAC3 (tachykinin precursor 3) #4, what does the deposit list?
log2 vehicle/camptothecin viability: 0.915; viability with camptothecin (% of control): 26.5; Outcome: inactive

Which result is listed for PLA2G2E (phospholipase A2 group IIE) #1?
log2 vehicle/camptothecin viability: 0.378; viability with camptothecin (% of control): 30.1; Outcome: inactive

For PLA2G2E (phospholipase A2 group IIE) #2, what was measured?
log2 vehicle/camptothecin viability: -0.0519; viability with camptothecin (% of control): 113; Outcome: inactive

With PLA2G2E (phospholipase A2 group IIE) #3, how do the results read?
log2 vehicle/camptothecin viability: -0.276; viability with camptothecin (% of control): 102; Outcome: inactive

Which result is listed for PLA2G2E (phospholipase A2 group IIE) #4?
log2 vehicle/camptothecin viability: 0.461; viability with camptothecin (% of control): 70; Outcome: inactive

3 entries already listed, ordered by “log2 vehicle/camptothecin viability”, descending:
TAC3 (tachykinin precursor 3) #2 → log2 vehicle/camptothecin viability = 0.526; viability with camptothecin (% of control) = 65.5; Outcome = inactive
TAC3 (tachykinin precursor 3) #1 → log2 vehicle/camptothecin viability = -0.0371; viability with camptothecin (% of control) = 66.8; Outcome = inactive
TAC3 (tachykinin precursor 3) #3 → log2 vehicle/camptothecin viability = -0.257; viability with camptothecin (% of control) = 101; Outcome = inactive

Additional records follow:
With DTX3 (deltex E3 ubiquitin ligase 3) #1, what does the deposit list?
log2 vehicle/camptothecin viability: -0.349; viability with camptothecin (% of control): 118; Outcome: inactive

For DTX3 (deltex E3 ubiquitin ligase 3) #2, what was measured?
log2 vehicle/camptothecin viability: -0.374; viability with camptothecin (% of control): 70.1; Outcome: inactive

Which result is listed for DTX3 (deltex E3 ubiquitin ligase 3) #3?
log2 vehicle/camptothecin viability: -0.0417; viability with camptothecin (% of control): 105; Outcome: inactive

For DTX3 (deltex E3 ubiquitin ligase 3) #4, what was measured?
log2 vehicle/camptothecin viability: -0.0984; viability with camptothecin (% of control): 71.4; Outcome: inactive

Which result is listed for P4HA1 (prolyl 4-hydroxylase subunit alpha 1) #1?
log2 vehicle/camptothecin viability: 0.231; viability with camptothecin (% of control): 52.9; Outcome: inactive

For P4HA1 (prolyl 4-hydroxylase subunit alpha 1) #2, how do the results read?
log2 vehicle/camptothecin viability: -0.342; viability with camptothecin (% of control): 94.6; Outcome: inactive

For P4HA1 (prolyl 4-hydroxylase subunit alpha 1) #3, what does the deposit list?
log2 vehicle/camptothecin viability: -0.485; viability with camptothecin (% of control): 82.5; Outcome: inactive

What did the screen give for P4HA1 (prolyl 4-hydroxylase subunit alpha 1) #4?
log2 vehicle/camptothecin viability: -0.246; viability with camptothecin (% of control): 105; Outcome: inactive

What did the screen give for PLEC (plectin) #1?
log2 vehicle/camptothecin viability: 0.182; viability with camptothecin (% of control): 91.1; Outcome: inactive

For PLEC (plectin) #2, what was measured?
log2 vehicle/camptothecin viability: -0.0154; viability with camptothecin (% of control): 101; Outcome: inactive

For PLEC (plectin) #3, what was measured?
log2 vehicle/camptothecin viability: -0.44; viability with camptothecin (% of control): 21.7; Outcome: inactive

For PLEC (plectin) #4, what was measured?
log2 vehicle/camptothecin viability: -0.303; viability with camptothecin (% of control): 95.2; Outcome: inactive

For TSPAN13 (tetraspanin 13) #1, what does the deposit list?
log2 vehicle/camptothecin viability: -0.11; viability with camptothecin (% of control): 62.7; Outcome: inactive

For TSPAN13 (tetraspanin 13) #2, what was measured?
log2 vehicle/camptothecin viability: -0.137; viability with camptothecin (% of control): 73.9; Outcome: inactive

How did the screen score TSPAN13 (tetraspanin 13) #3?
log2 vehicle/camptothecin viability: -0.394; viability with camptothecin (% of control): 35.3; Outcome: inactive

With TSPAN13 (tetraspanin 13) #4, what was measured?
log2 vehicle/camptothecin viability: 0.204; viability with camptothecin (% of control): 77.8; Outcome: inactive

With SPRYD4 (SPRY domain containing 4) #1, what was measured?
log2 vehicle/camptothecin viability: -0.194; viability with camptothecin (% of control): 113; Outcome: inactive

With SPRYD4 (SPRY domain containing 4) #2, what was measured?
log2 vehicle/camptothecin viability: -0.478; viability with camptothecin (% of control): 50.2; Outcome: inactive

With SPRYD4 (SPRY domain containing 4) #3, what was measured?
log2 vehicle/camptothecin viability: -0.295; viability with camptothecin (% of control): 69.7; Outcome: inactive

Which result is listed for SPRYD4 (SPRY domain containing 4) #4?
log2 vehicle/camptothecin viability: -0.243; viability with camptothecin (% of control): 8.4; Outcome: inactive

What did the screen give for PGPEP1 (pyroglutamyl-peptidase I) #1?
log2 vehicle/camptothecin viability: -0.393; viability with camptothecin (% of control): 109; Outcome: inactive

What did the screen give for PGPEP1 (pyroglutamyl-peptidase I) #2?
log2 vehicle/camptothecin viability: -7.19; viability with camptothecin (% of control): 45.2; Outcome: inactive

For PGPEP1 (pyroglutamyl-peptidase I) #3, how do the results read?
log2 vehicle/camptothecin viability: -0.124; viability with camptothecin (% of control): 52.1; Outcome: inactive

What did the screen give for PGPEP1 (pyroglutamyl-peptidase I) #4?
log2 vehicle/camptothecin viability: -0.264; viability with camptothecin (% of control): 93.2; Outcome: inactive

Which result is listed for KMT2C (lysine methyltransferase 2C) #1?
log2 vehicle/camptothecin viability: 0.277; viability with camptothecin (% of control): 62.5; Outcome: inactive

Which result is listed for KMT2C (lysine methyltransferase 2C) #2?
log2 vehicle/camptothecin viability: -0.252; viability with camptothecin (% of control): 35.6; Outcome: inactive

With KMT2C (lysine methyltransferase 2C) #3, what was measured?
log2 vehicle/camptothecin viability: -0.32; viability with camptothecin (% of control): 65; Outcome: inactive
